Laboratory results taken from the supplement of paper PMC8256030.
Values joined by “and” are separate entries in the source; they are usually repeats but may differ in a detail not shown here. Equal values may be shown once. Where a name gives a salt, the structure may show the parent alone. The list shows a part of the results. This data set is noisy: repeats of one test often differ as much as different tests do.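 HEK293T cells were given each compound shortly before transfection with a reporter in which red mCherry is followed by the SARS-CoV-2 frameshift element and then GFP in the −1 frame, so GFP appears only after frameshifting.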

These compounds were tested on HEK293T (assay: percent viability (nuclei count) relative to control; higher = more viable cells). Conditions: 10 µM; 24 h.
Compound `CC(=O)[C@H]1CC[C@H]2[C@@H]3CC=C4C=C(OC5CCCC5)CC[C@]4(C)[C@H]3CC[C@]12C` [quingestrone] has a percent viability of 173%.
In the case of `Cc1c(C(=O)Nc2ccc(N3C[C@@H](C)O[C@@H](C)C3)nc2)cccc1-c1ccc(OC(F)(F)F)cc1` [Sonidegib], the percent viability is reported as 66.6%.
For `C[N+](C)([O-])CCC=C1c2ccccc2CCc2ccccc21` [amitriptylinoxide], the percent viability was 78.3%.
In the case of `CC1=C(/C=C/C(C)=C/C=C/C(C)=C/CO)C(C)(C)CCC1` [Vitamin A (Retinol)], the percent viability is reported as 283%.
`Clc1cccc(Cl)c1NC1=NCCN1` showed a percent viability of 143%.
Compound `CCCCCCCCCC(=O)N[C@@H](Cc1c[nH]c2ccccc12)C(=O)N[C@@H](CC(N)=O)C(=O)N[C@@H](CC(=O)O)C(=O)N[C@@H]1C(=O)NCC(=O)N[C@@H](CCCN)C(=O)N[C@@H](CC(=O)O)C(=O)N[C@H](C)C(=O)N[C@@H](CC(=O)O)C(=O)NCC(=O)N[C@H](CO)C(=O)N[C@@H]([C@H](C)CC(=O)O)C(=O)N[C@@H](CC(=O)c2ccccc2N)C(=O)O[C@@H]1C` has a percent viability of 196%.
In the case of `O=C(O)CCCCCCCNC(=O)c1ccccc1O` [salcaprozic acid], the percent viability is reported as 326%.
`CN[C@@H]1[C@H](O)[C@H](NC)[C@H]2O[C@@]3(O)C(=O)C[C@@H](C)O[C@H]3O[C@@H]2[C@H]1O` [Spectinomycin·2HCl] gave a percent viability of 139%.
`Oc1ccc(O)cc1` showed a percent viability of 127%.
Compound `NC(=O)N[C@@H](CCC(=O)O)C(=O)O` has a percent viability of 41.7%.
With `CCCCc1nc(Cl)c(CO)n1Cc1ccc(-c2ccccc2-c2nnn[nH]2)cc1` the percent viability was 321%.
Work on `CC=CC1=C(C(=O)O)N2C(=O)[C@@H](NC(=O)[C@H](N)c3ccc(O)cc3)[C@H]2SC1` [Cefprozil] yielded a percent viability of 307%.
For `CC(C)c1c(C(=O)Nc2ccccc2)c(-c2ccccc2)c(-c2ccc(F)cc2)n1CC[C@@H](O)C[C@@H](O)CC(=O)O`, the percent viability was 254%.
`CCC[C@@H]1C[C@@H](C(=O)N[C@@H]([C@H]2O[C@H](SC)[C@H](O)[C@@H](O)[C@H]2O)[C@H](C)Cl)N(C)C1` [Clindamycin·HCl] showed a percent viability of 98.7%.
Work on `CCCCC1C(=O)N(c2ccccc2)N(c2ccc(O)cc2)C1=O` (stereo unspecified) [oxyphenbutazone] yielded a percent viability of 91.6%.
For `O=C(Nc1ccccc1)OCC(CN1CCCCC1)OC(=O)Nc1ccccc1` (stereo unspecified), the percent viability was 175%.
With `CC(=O)OCC(=O)[C@@]1(OC(C)=O)[C@@H](C)C[C@H]2[C@@H]3C[C@H](F)C4=CC(=O)C=C[C@]4(C)[C@@]3(F)[C@@H](O)C[C@@]21C` the percent viability was 297%.
Work on `N=C(NCCCCCCNC(=N)NC(=N)Nc1ccc(Cl)cc1)NC(=N)Nc1ccc(Cl)cc1` [Chlorhexidine] yielded a percent viability of 220%.
`CC(=O)Nc1ncc([N+](=O)[O-])s1` [aminitrozole] gave a percent viability of 324%.
In the case of `CCCOc1ccc2[nH]c(NC(=O)OC)nc2c1` [oxibendazole], the percent viability is reported as 49.9% and 52.7%.
For `CCCCCCCCCCCCOS(=O)(=O)[O-].[Na+]` [Sodium lauryl sulfate], the percent viability was 224%.
For `NC(=O)C1c2ccccc2CCc2ccccc21` [cyheptamide], the percent viability was 176%.
`CC(=O)O[C@H]1C(=O)[C@@]2(C)[C@H]([C@H](OC(=O)c3ccccc3)[C@]3(O)C[C@H](OC(=O)[C@H](O)[C@@H](NC(=O)c4ccccc4)c4ccccc4)C(C)=C1C3(C)C)[C@]1(OC(C)=O)CO[C@@H]1C[C@@H]2O` [paclitaxel] showed a percent viability of 18.4%.
Compound `O=C(O[C@@H]1C[C@@H]2C[C@H]3C[C@H](C1)N2CC3=O)c1c[nH]c2ccccc12` [dolasetron] has a percent viability of 133%.
`CCC(=O)NCC[C@@H]1CCc2ccc3c(c21)CCO3` [ramelteon] showed a percent viability of 282%.
`Cc1cc(-n2c(=O)[nH]c(=O)n(C)c2=O)ccc1Oc1ccc(S(=O)(=O)C(F)(F)F)cc1` [ponazuril] gave a percent viability of 152%.
With `C[C@H]1COc2c(C3(N)CC3)c(F)cc3c(=O)c(C(=O)O)cn1c23` the percent viability was 239%.
`CCN1C(=CC=Cc2ccc3ccccc3[n+]2CC)C=Cc2ccccc21` [quinaldine blue] was tested, and the percent viability was 56.2%.
`C=C1CC[C@H](O)C/C1=C/C=C1\CCC[C@]2(C)[C@@H]([C@H](C)CC[C@@H](O)C(C)(C)O)CC[C@@H]12` [secalciferol] was tested, and the percent viability was 238%.
In the case of `O=C(O)CCC/C=C\C[C@@H]1[C@@H](/C=C/[C@@H](O)COc2cccc(C(F)(F)F)c2)[C@H](O)C[C@@H]1O` (racemic) [fluprostenol], the percent viability is reported as 180%.
Work on `CS(=O)(=O)c1ccc([C@H](O)[C@@H](COC(=O)CN)NC(=O)C(Cl)Cl)cc1` [Thiamphenicol glycinate] yielded a percent viability of 250%.
